For assay [1], the target named is L-type CaV1.2 (CACNA1C) (rat (endogenous in INS-1 832/13)) (UniProt P22002). Nature of the assay: proximity ligation; Duolink in situ detection in fixed (3% PFA), permeabilised INS-1 832/13 cells; endogenous proteins; primary antibodies rabbit anti-CaVγ4 and mouse anti-CaV1.3; cells treated with 5 or 20 mM glucose (24 h); spots imaged by confocal microscopy.
The target in assay [2] is L-type CaV1.3 (CACNA1D) (rat (endogenous in INS-1 832/13)) (UniProt P27732). The assay is described as above.

The chains behind the UniProt entries cited, without tags or fusion partners.
UniProt P22002: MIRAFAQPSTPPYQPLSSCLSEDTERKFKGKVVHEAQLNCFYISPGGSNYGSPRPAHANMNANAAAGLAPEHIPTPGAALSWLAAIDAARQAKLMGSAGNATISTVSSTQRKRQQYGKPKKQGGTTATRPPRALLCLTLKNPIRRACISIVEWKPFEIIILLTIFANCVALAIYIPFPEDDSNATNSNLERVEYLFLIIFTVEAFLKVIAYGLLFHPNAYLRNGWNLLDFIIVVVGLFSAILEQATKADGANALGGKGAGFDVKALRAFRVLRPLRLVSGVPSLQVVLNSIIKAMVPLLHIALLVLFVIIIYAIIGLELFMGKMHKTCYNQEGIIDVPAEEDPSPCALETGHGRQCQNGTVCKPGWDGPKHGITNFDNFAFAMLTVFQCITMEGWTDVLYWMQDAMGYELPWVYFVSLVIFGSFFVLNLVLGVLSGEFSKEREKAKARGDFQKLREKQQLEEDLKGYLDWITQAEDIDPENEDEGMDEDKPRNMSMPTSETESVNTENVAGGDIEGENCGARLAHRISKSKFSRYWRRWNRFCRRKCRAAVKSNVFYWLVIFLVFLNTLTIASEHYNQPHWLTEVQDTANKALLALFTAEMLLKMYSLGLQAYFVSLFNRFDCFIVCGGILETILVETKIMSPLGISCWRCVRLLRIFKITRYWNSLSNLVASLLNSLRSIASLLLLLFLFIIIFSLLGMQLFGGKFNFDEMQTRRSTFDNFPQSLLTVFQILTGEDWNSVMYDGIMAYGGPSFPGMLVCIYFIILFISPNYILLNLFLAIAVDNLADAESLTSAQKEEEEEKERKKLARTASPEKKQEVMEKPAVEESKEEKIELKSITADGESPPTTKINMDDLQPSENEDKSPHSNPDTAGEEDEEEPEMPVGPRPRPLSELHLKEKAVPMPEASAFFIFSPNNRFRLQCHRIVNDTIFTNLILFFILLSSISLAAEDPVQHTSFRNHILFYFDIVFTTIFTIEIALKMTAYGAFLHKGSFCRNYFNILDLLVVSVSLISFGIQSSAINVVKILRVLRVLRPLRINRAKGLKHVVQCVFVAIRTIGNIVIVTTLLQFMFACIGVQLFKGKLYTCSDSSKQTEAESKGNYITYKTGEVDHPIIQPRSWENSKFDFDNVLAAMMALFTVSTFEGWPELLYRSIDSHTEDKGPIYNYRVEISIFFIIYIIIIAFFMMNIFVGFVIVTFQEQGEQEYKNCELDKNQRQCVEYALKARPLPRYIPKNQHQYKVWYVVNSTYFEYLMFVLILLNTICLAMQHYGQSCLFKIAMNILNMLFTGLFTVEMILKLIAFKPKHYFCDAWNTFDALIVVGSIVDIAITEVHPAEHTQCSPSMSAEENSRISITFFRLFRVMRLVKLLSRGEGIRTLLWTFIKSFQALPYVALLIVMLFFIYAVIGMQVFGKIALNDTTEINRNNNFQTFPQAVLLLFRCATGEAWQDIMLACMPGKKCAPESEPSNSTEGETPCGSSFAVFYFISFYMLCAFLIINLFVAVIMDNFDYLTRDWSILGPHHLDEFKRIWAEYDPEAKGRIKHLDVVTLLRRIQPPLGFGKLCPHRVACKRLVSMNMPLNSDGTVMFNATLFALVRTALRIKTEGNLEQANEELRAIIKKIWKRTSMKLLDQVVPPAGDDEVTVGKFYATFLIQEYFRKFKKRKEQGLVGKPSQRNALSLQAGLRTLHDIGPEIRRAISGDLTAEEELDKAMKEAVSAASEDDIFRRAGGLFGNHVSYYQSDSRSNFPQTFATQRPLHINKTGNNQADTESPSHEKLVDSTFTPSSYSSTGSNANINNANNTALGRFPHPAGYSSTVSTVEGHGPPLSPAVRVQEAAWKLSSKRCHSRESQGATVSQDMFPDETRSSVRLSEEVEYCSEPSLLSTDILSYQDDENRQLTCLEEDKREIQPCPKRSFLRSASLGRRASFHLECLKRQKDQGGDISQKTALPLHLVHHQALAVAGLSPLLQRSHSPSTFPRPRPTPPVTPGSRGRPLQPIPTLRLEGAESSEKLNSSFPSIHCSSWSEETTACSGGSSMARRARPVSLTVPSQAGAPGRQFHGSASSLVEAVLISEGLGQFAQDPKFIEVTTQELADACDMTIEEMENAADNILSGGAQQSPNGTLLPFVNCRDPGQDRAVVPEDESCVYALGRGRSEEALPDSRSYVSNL
UniProt P27732: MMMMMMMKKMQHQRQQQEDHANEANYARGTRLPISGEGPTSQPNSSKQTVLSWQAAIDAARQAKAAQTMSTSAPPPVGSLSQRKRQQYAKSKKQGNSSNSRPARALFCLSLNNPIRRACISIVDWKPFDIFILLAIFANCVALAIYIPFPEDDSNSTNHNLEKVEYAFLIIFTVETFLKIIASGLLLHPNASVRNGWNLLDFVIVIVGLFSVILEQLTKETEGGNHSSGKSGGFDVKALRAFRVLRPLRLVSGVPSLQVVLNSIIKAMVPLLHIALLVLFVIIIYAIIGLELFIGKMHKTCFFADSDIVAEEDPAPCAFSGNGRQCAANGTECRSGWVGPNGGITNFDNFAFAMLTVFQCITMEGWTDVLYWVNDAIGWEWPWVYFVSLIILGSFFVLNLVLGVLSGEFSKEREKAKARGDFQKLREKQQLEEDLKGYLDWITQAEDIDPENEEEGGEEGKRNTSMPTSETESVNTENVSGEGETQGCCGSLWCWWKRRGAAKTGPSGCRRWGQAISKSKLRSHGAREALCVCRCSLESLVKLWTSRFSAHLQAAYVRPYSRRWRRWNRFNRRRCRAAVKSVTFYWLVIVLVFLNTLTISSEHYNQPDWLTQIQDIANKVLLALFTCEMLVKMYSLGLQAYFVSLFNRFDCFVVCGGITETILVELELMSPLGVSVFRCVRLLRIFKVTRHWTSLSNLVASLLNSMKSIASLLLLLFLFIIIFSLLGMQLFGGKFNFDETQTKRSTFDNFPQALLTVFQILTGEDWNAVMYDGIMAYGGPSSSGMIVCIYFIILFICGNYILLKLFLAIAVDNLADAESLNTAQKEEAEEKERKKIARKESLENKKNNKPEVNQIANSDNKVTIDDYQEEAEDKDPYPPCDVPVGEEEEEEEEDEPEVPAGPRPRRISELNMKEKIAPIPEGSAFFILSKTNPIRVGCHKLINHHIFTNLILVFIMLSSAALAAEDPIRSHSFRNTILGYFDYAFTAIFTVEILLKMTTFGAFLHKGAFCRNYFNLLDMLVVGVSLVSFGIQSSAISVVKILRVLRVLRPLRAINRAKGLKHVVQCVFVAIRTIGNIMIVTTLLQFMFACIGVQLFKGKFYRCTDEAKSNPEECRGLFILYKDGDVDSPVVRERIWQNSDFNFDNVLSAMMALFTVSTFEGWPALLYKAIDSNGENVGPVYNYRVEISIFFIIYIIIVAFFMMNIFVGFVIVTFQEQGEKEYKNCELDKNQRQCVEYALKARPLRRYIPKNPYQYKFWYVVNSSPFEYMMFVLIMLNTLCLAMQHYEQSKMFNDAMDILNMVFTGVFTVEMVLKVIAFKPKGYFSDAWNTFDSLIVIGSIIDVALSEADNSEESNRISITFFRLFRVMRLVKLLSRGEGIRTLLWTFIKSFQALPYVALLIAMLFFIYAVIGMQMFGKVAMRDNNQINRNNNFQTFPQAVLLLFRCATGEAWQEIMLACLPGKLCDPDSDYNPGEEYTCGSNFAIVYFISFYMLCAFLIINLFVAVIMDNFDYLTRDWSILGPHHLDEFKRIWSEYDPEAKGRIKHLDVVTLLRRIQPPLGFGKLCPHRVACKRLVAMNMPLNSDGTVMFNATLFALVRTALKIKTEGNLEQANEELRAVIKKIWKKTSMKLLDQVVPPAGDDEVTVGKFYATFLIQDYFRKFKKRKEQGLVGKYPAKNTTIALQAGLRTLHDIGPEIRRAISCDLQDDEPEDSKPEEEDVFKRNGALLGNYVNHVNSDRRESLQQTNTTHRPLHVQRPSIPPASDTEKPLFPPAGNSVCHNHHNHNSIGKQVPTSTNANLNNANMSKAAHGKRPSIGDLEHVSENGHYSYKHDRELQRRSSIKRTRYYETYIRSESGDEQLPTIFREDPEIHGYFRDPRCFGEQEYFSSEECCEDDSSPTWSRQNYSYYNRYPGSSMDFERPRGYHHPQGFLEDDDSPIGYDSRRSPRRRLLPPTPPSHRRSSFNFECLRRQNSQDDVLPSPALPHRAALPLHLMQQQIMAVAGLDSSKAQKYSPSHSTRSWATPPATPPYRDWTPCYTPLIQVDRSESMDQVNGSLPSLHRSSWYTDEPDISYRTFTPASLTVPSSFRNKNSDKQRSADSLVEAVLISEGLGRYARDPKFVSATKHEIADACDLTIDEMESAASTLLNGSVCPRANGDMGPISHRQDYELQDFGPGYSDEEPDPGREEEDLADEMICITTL

These are yes or no findings as the source states them, for the method shown. Binding seen in cells or lysates may run through a third protein. Some results given as binding are weak or reduced against the parent protein; the word gives no strength. Tags and fused reporters may be left off the sequences shown.

Experimental findings from publication PMC6420573 are described below.

B1: voltage-gated Ca2+ channel subunit gamma4 (CaVγ4) (protein, UniProt Q8VHW9 1-327)
chain: MVRCDRGLQMLLTTAGAFAAFSLMAIAIGTDYWLYSSAHICNGTNLTMDDGPPPRRARGDLTHSGLWRVCCIEGIYKGHCFRINHFPEDNDYDHDSSEYLLRIVRASSVFPILSTILLLLGGLCIGAGRIYSRKNNIVLSAGILFVAAGLSNIIGIIVYISSNTGDPSDKRDEDKKNHYNYGWSFYFGALSFIVAETVGVLAVNIYIEKNKELRFKTKREFLKASSSSPYSRMPSYRYRRRRSRSSSRSTEASPSRDASPVGLKITGAIPMGELSMYTLSREPLKVTTAASYSPDQDAGFLQMHDFFQQDLKEGFHVSMLNRRTTPV
Regarding B1, the binding result in assay [1] is “no binding”; in assay [2] it was “binds”.
